Experiment [1] deals with endogenous Spt6 (Drosophila (endogenous in S2 cells)) (UniProt Q9W420). The experiment in a line: co-IP; anti-Spt6 antibody (25C6) on Protein A-Sepharose; Benzonase-treated S2 nuclear extract; 4 °C overnight; washes with 150 mM NaCl; blots α FLAG, α Spt6, α H3.
Experiment [2] shares this target. The experiment in a line: co-IP; anti-Spt6 antibody (25C6) on Protein A-Sepharose; Benzonase-treated S2 nuclear extract; 4 °C overnight; high salt washes with 750 mM NaCl; blots α FLAG, α Spt6, α H3.

Amino acid sequences for entries named in this document (tags omitted). A change or cut given only in a name is not applied to a line headed by its entry. Chains listed by the source or under a name are the forms on record and can include a tag or linker.
UniProt Q9W420: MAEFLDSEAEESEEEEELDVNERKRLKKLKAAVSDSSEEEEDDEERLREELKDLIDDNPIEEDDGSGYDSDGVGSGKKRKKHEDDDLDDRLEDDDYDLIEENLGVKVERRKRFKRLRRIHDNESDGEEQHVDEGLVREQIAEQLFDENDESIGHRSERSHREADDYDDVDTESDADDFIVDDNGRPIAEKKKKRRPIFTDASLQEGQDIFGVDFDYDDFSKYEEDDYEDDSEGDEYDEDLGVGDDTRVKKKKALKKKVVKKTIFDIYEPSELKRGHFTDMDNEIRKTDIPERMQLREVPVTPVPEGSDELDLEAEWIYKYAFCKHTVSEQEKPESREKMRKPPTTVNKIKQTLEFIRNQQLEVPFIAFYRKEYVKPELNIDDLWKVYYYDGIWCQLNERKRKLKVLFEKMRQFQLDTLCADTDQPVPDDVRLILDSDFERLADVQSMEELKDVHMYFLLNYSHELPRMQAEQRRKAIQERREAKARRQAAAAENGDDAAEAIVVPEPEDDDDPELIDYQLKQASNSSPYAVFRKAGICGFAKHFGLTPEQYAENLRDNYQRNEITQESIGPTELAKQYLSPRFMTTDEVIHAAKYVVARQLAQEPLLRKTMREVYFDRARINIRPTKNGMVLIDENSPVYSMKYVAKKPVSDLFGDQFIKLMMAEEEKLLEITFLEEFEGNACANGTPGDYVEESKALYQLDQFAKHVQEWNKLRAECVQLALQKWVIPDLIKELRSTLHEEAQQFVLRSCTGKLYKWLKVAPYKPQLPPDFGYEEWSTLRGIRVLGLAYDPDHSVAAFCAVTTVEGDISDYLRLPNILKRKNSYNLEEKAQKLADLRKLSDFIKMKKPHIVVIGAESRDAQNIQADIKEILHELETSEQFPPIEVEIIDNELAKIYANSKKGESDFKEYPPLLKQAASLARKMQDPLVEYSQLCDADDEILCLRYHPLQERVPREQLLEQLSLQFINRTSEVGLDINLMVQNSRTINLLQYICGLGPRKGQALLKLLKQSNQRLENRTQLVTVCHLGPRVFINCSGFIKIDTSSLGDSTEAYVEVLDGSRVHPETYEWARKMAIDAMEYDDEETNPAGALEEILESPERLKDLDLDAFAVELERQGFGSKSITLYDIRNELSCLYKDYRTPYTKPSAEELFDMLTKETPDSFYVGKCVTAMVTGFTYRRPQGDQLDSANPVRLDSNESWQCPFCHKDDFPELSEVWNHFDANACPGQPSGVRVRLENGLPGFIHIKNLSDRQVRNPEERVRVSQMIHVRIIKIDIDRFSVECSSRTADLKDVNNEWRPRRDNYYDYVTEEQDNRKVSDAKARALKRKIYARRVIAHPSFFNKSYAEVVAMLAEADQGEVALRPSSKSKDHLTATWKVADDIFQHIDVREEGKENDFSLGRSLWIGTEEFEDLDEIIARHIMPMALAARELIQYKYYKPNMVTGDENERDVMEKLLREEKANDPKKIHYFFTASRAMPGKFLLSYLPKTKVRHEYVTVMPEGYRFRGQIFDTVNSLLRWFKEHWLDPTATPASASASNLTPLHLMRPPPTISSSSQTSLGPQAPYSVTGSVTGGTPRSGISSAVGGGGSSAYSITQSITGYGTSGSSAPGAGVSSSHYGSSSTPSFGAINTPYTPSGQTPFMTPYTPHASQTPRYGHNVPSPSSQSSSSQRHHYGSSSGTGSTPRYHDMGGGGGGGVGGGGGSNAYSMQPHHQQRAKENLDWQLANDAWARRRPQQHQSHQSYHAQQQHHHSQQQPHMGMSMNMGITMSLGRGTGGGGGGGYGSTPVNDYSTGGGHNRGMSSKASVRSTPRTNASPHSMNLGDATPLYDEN
UniProt Q9V6Q2: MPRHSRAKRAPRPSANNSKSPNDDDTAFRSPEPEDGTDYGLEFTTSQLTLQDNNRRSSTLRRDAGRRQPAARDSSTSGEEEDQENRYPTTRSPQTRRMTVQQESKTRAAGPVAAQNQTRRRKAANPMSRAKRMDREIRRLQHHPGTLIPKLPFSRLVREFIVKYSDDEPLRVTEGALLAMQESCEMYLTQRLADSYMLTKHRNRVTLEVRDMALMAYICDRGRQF
dCENP-A^FLAG (S20/75/77D) (Q9V6Q2, form named): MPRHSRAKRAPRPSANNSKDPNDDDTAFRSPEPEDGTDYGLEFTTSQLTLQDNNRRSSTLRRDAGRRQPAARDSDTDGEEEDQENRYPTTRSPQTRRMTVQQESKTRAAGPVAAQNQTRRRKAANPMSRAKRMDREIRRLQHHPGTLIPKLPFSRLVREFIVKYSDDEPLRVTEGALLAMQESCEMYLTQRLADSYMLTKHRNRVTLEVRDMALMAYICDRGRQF
dCENP-A^FLAG (S20/75/77A) (Q9V6Q2, form named): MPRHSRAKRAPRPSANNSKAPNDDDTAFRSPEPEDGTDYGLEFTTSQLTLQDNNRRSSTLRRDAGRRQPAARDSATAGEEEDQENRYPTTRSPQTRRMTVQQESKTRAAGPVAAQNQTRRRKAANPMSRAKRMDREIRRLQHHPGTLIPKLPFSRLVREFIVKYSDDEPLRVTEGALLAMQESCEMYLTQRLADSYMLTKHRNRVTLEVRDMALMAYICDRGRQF

These are yes or no findings as the source states them, for the method shown. Binding seen in cells or lysates may run through a third protein. Some binding calls cover weakened binding; strength is not graded here.

With “dCENP-A^FLAG (S20/75/77D) (from UniProt Q9V6Q2 1-225)”, in experiment [1], the binding entry is “binds weakly”.

In the case of “dCENP-A^FLAG S77A (from UniProt Q9V6Q2 1-225)”, the binding entry in experiment [1] is reported as “binds”.

As to “dCENP-A^FLAG (S20/75/77A) (from UniProt Q9V6Q2 1-225)”, the binding result in experiment [1] and in experiment [2] was “binds” each time.

As for “dCENP-A^FLAG S77D (from UniProt Q9V6Q2 1-225)”, in experiment [1], the binding entry is “binds weakly”.

As to “full length dCENP-A^FLAG (from UniProt Q9V6Q2 1-225)”, the binding entry in experiment [1] and in experiment [2] was “binds” throughout.

(Values after paper PMC7287101.)
